Results reported in article PMC4385931.
No constants are given. Whether binding was seen depends on the method and setting. Binding seen in cells or lysates may run through a third protein. Some entries that bind do so weakly or less than the wild type.

Protein sequences, listed by entry. Tags and fused reporters are not part of them.
UniProt P60879: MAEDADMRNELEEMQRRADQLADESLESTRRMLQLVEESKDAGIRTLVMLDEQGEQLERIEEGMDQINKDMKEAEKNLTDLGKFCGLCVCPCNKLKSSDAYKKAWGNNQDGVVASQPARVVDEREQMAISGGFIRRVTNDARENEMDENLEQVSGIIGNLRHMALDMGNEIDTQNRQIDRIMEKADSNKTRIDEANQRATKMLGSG
UniProt P34152: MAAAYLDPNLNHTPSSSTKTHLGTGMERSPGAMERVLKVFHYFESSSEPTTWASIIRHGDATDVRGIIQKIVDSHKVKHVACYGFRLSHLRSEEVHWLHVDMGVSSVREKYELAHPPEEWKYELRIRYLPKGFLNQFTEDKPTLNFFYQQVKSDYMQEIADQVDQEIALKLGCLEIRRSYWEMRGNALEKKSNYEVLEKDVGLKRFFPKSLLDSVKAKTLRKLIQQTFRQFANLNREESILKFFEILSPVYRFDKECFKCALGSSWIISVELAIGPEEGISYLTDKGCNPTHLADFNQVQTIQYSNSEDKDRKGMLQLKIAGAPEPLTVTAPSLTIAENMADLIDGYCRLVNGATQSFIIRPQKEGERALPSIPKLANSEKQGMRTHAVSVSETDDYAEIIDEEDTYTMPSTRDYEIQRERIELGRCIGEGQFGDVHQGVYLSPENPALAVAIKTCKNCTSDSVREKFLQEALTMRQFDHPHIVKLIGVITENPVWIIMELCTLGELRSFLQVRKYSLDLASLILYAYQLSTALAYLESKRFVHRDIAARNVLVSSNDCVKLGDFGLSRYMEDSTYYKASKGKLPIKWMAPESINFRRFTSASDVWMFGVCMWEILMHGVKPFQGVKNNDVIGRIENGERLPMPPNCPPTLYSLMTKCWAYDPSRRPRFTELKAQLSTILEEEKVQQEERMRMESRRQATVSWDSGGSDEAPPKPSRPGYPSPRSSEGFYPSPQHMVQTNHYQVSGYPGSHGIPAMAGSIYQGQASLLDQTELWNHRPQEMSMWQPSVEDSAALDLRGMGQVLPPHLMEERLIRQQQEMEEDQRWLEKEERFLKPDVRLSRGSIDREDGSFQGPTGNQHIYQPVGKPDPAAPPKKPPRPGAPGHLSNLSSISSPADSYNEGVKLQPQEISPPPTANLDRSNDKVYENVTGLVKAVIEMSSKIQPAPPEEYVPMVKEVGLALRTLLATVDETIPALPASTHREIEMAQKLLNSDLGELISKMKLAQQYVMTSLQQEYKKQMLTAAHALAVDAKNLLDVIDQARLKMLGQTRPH
UniProt Q9JLV1: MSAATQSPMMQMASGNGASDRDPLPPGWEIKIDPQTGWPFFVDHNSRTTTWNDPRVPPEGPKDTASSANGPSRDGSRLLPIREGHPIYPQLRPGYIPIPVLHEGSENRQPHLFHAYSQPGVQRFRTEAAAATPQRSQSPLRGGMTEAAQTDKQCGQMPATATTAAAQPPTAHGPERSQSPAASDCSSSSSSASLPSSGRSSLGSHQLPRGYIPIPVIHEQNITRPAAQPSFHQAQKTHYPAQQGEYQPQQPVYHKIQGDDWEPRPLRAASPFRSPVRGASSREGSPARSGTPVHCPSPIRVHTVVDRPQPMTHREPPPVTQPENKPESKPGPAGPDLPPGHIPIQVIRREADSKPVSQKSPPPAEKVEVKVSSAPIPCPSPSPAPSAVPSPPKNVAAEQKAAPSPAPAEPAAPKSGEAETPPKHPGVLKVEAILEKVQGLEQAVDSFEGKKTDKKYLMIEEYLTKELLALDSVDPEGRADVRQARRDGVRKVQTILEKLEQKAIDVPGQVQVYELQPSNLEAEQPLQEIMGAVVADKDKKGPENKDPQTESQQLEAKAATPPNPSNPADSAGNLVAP

What was measured:
[1] = biological target: synaptosome-associated protein of 25 kDa (SNAP-25) (mouse (endogenous in β-TC-6)) (UniProt P60879); test: condition: only cells stimulated with 25-mM glucose for 15 or 30 min; co-IP; anti-SNAP-25 antibody on IP matrix, 300 μg β-TC-6 lysate, 2 h at 4°C, washed with RIPA buffer, western blot; cells stimulated with 25-mM glucose for 15 or 30 min (no Y15)
[2] = biological target: synaptosome-associated protein of 25 kDa (SNAP-25) (mouse (endogenous in β-TC-6)) (UniProt P60879); test: co-IP; anti-SNAP-25 antibody on IP matrix, 300 μg β-TC-6 lysate, 2 h at 4°C, washed with RIPA buffer, western blot; cells in basal conditions or 5 min of 25-mM glucose; also 5-30 min of 25-mM glucose with the FAK inhibitor Y15
[3] = biological target: focal adhesion kinase (FAK) (mouse (endogenous in β-TC-6)) (UniProt P34152); test: co-IP; anti-FAK antibody on IP matrix, 300 μg β-TC-6 lysate, 2 h at 4°C, washed with RIPA buffer, western blot; cells in basal conditions or 5-30 min of 25-mM glucose

binding [1]: no binding
binding [2]: binds
binding [3]: binds
Substance: Bcl2-associated athanogene 3 (BAG3) (from UniProt Q9JLV1 1-577)
